Reference: the supplement of paper PMC10077471
Whole data set: some 1,900 compounds, median “excess over highest single agent (ExcessHSA) synergy score, 6x6 matrix” near -83, cut for the lowest 2% near -370. The list shows a part of the results.

These compounds were tested on NCI-H446 (assay: excess over highest single agent (ExcessHSA) synergy score, 6x6 matrix; higher = less synergy (more negative = stronger synergy)). Settings: 72 h; CellTiter-Glo viability.

Compound	excess over highest single agent
Nc1ncnc2nc(-c3ccc(N4CCOCC4)nc3)cc(-c3cccc(Br)c3)c12 + Cc1sc2c(c1C)C(c1ccc(Cl)cc1)=N[C@@H](CC(=O)OC(C)(C)C)c1nnc(C)n1-2 [NCGC00250412-19]	-45.2
COc1cc(NC(=O)c2ccc(-c3ccc(Cl)cc3)o2)cc(OC)c1 + Cc1sc2c(c1C)C(c1ccc(Cl)cc1)=N[C@@H](CC(=O)OC(C)(C)C)c1nnc(C)n1-2 [NCGC00250412-19]	-25.4
CS(=O)(=O)Nc1ccc([N+](=O)[O-])cc1Oc1ccccc1 + Cc1sc2c(c1C)C(c1ccc(Cl)cc1)=N[C@@H](CC(=O)OC(C)(C)C)c1nnc(C)n1-2 [NCGC00250412-19]	-31
CCn1cc(C(=O)O)c(=O)c2cc(F)c(N3CCNC(C)C3)c(F)c21 (stereo not given) + Cc1sc2c(c1C)C(c1ccc(Cl)cc1)=N[C@@H](CC(=O)OC(C)(C)C)c1nnc(C)n1-2 [NCGC00250412-19]	-147
CCC1=C[C@@H]2CN(C1)Cc1c([nH]c3ccccc13)[C@@](C(=O)OC)(c1cc3c(cc1OC)N(C)[C@H]1[C@@](O)(C(=O)OC)[C@H](OC(C)=O)[C@]4(CC)C=CCN5CC[C@]31[C@@H]54)C2 + Cc1sc2c(c1C)C(c1ccc(Cl)cc1)=N[C@@H](CC(=O)OC(C)(C)C)c1nnc(C)n1-2 [NCGC00250412-19]	-352
CC(C)CN(C[C@@H](O)[C@H](Cc1ccccc1)NC(=O)O[C@H]1CCOC1)S(=O)(=O)c1ccc(N)cc1 + Cc1sc2c(c1C)C(c1ccc(Cl)cc1)=N[C@@H](CC(=O)OC(C)(C)C)c1nnc(C)n1-2 [NCGC00250412-19]	-65.5
CC(=O)N1CCN(c2ccc(OCc3nn(C)c(C)c3-c3cccc4c(CCCOc5cccc6ccccc56)c(C(=O)O)n(Cc5cccnc5)c34)cc2)CC1 + Cc1sc2c(c1C)C(c1ccc(Cl)cc1)=N[C@@H](CC(=O)OC(C)(C)C)c1nnc(C)n1-2 [NCGC00250412-19]	97.8
COc1ccc2c(c1)CN(C)CC2c1ccc(Cl)c(Cl)c1 (stereo not given) + Cc1sc2c(c1C)C(c1ccc(Cl)cc1)=N[C@@H](CC(=O)OC(C)(C)C)c1nnc(C)n1-2 [NCGC00250412-19]	-62.7
C#C[C@]1(O)C=C[C@H]2[C@@H]3CCC4=CC(=O)CC[C@@H]4[C@H]3CC[C@@]21CC + Cc1sc2c(c1C)C(c1ccc(Cl)cc1)=N[C@@H](CC(=O)OC(C)(C)C)c1nnc(C)n1-2 [NCGC00250412-19]	-28.3
CCn1cc(C(=O)O)c(=O)c2cc(F)c(N3CCN(C)CC3)cc21 + Cc1sc2c(c1C)C(c1ccc(Cl)cc1)=N[C@@H](CC(=O)OC(C)(C)C)c1nnc(C)n1-2 [NCGC00250412-19]	-70.1
